At least one structure is not confirmed: it was looked up by name or label, or the drawing left a doubt.
Test system: LnCap human prostate cancer
Test: Subcutaneous transplantation model of LnCap human prostate cancer
Type: in vivo, NCG mice
Conditions: result in words
From the text: NCG mice, male, 8-10-week-old (when tumor cells were inoculated into the mice). […] LnCap cells in exponential growth phase were harvested and resuspended in PBS to a concentration suitable for subcutaneous tumor inoculation into mice. […] A formula for calculating a tumor volume: long diameter × short diameter^2 / 2. [table] […] Solvent: the solvent was a mixed solvent of PG, PEG400, and water, PG: PEG400: water=(20-40): (20-30): (30-50) (v: v: v). Any ratio within the range can be used. [table] All experimental results are shown as mean tumor volume ± SEM (standard error of mean). Whether there is a significant difference between the treatment group and the control group in terms of tumor volume was determined by the independent samples T test. All data were analyzed by using SPSS 18.0.

In the case of `CC(C)NC[C@@H](C(=O)N1CCN(c2ncnc3c2[C@H](C)CC(=O)N3)[C@H]2C[C@H]21)c1ccc(Cl)cc1` [Isomer 2 of Example 1, (R)-4-((1S,6R)-5-((S)-2-(4-chlorophenyl)-3-(isopropylamino)propionyl)-2,5-diazabicyclo[4.1.0]heptan-2-yl)-5-methyl-5,8-dihydropyrido[2,3-d]pyrimidin-7(6H)-one], the “tumor inhibiting effect in the in vivo experiment” value is reported as “obvious tumor inhibiting effect”.

`C[C@@H]1CC(=O)Nc2ncnc(N3CCN(C(=O)[C@H](CNC4CC4)c4ccc(Cl)cc4)[C@@H]4C[C@@H]43)c21` [Isomer 2 of Example 2, (R)-4-((1S,6R)-5-((S)-2-(4-chlorophenyl)-3(cyclopropylamino)propionyl)-2,5-diazabicyclo[4.1.0]heptan-2-yl)-5-methyl-5,8-dihydropyrido[2,3-d]pyrimidin-7(6H)-one] was tested, and the “tumor inhibiting effect in the in vivo experiment” value was “obvious tumor inhibiting effect”.
